Experimental data reported in paper PMC8384837.
Residue numbers refer to the chain shown, from its start. The list shows a part of the results. For some assays here: At the low end of the ranking the order means little. For some assays here: Construct or isoform of the protein are uncertain.

How the values were obtained:
Settings in all cases: yeast three-hybrid, YBZ-1, SC-Leu-His + 0.5 mM 3-AT, 4 days
[1] = biological target: T1, PUM1 PUF domain R1-QFR R2-VFQ R7-NPG S863Q + R864F + Q867R + N899V + Y900F + S1079N + N1080P + E1083G (UniProt Q14671)
T1 sequence: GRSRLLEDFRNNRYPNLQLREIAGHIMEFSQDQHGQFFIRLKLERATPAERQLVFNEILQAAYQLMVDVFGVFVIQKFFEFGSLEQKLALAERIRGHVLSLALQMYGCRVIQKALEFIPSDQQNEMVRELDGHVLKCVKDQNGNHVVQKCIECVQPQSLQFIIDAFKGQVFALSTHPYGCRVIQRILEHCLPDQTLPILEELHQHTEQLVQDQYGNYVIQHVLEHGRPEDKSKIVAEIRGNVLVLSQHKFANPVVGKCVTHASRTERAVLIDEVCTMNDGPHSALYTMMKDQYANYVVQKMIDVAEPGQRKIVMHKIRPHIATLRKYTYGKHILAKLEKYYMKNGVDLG

[2] = biological target: T2, PUM1 PUF domain R2-VFQ R3-THE R4-TFR N899V + Y900F + C935T + R936H + Q939E + N971T + H972F + Q975R (UniProt Q14671)
T2 sequence: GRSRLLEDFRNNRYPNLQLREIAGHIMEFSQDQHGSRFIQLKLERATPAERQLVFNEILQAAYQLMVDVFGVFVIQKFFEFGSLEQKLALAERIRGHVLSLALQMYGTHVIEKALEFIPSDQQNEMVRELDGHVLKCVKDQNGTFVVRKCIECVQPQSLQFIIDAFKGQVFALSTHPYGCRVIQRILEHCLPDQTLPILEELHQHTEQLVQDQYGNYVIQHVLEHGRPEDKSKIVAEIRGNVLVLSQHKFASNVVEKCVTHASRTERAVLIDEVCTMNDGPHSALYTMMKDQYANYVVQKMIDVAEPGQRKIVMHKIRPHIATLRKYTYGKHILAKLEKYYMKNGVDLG

[3] = biological target: T3, PUM1 PUF domain R3-THE R4-TFR R7-NPG C935T + R936H + Q939E + N971T + H972F + Q975R + S1079N + N1080P + E1083G (Homo sapiens) (UniProt Q14671)
T3 sequence: T2 sequence with V72N, F73Y, S252N, N253P, E256G

[4] = biological target: T4, PUM1 PUF domain R5-PHQ R6-SWD C1007P + R1008H + N1043S + Y1044W + Q1047D (UniProt Q14671)
T4 sequence: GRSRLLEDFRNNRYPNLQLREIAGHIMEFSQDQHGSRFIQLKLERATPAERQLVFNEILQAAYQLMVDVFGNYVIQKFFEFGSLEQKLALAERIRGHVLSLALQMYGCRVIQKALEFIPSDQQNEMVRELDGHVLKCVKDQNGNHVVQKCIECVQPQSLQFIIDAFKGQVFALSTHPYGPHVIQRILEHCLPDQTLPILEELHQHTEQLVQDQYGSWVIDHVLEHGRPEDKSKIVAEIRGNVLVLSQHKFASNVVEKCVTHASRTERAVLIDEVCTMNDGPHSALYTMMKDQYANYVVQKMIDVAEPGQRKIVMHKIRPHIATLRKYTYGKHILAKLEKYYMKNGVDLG

[5] = biological target: T5, PUM1 PUF domain R3-THE R4-TFR R7-NPG C935T + R936H + Q939E + N971T + H972F + Q975R + S1079N + N1080P + E1083G (UniProt Q14671)
T5 sequence: T2 sequence with V72N, F73Y, S252N, N253P, E256G

[6] = biological target: T6, PUM1 PUF domain R6-SWD R7-NPG N1043S + Y1044W + Q1047D + S1079N + N1080P + E1083G (Homo sapiens) (UniProt Q14671)
T6 sequence: T4 sequence with P180C, H181R, S252N, N253P, E256G

Sequence | binding signal (log2 enrichment (interaction score)) [1] | binding signal (log2 enrichment (interaction score)) [2] | binding signal (log2 enrichment (interaction score)) [3] | binding signal (log2 enrichment (interaction score)) [4] | binding signal (log2 enrichment (interaction score)) [5] | binding signal (log2 enrichment (interaction score)) [6]
GGCUAGAACUAGUGGAUCCCCCGGCGCCCGGCGGCUCGAGCCCGGGUAAGUUGAACAAGUCUGCAUGCCGCCGGGCGCCAUGCCUGCAGGUCGACUCUAGAAAACAUG | -7.06 | -6.86 | -1.99 | -8.09 |  | 
GGCUAGAACUAGUGGAUCCCCCGGCGCCCGGCGGCUCGAGCCCGGGUAAGUCGGAGUCGUCUGCAUGCCGCCGGGCGCCAUGCCUGCAGGUCGACUCUAGAAAACAUG | -5.93 | -5.86 |  | < -7.04 |  | 
GGCUAGAACUAGUGGAUCCCCCGGCGCCCGGCGGCUCGAGCCCGGGUAAGUUGCAAUAGUCUGCAUGCCGCCGGGCGCCAUGCCUGCAGGUCGACUCUAGAAAACAUG | -5.49 | < -6.34 |  | < -7.29 |  | 
GGCUAGAACUAGUGGAUCCCCCGGCGCCCGGCGGCUCGAGCCCGGGUAAGUUGCCAUAGUCUGCAUGCCGCCGGGCGCCAUGCCUGCAGGUCGACUCUAGAAAACAUG | < -6.96 | -6.31 |  | -8.77 | -2.11 | -1.79
GGCUAGAACUAGUGGAUCCCCCGGCGCCCGGCGGCUCGAGCCCGGGUAAGGUGUACAAGUCUGCAUGCCGCCGGGCGCCAUGCCUGCAGGUCGACUCUAGAAAACAUG | -6.13 | -5.46 |  |  | -2.88 | 
GGCUAGAACUAGUGGAUCCCCCGGCGCCCGGCGGCUCGAGCCCGGGUAAGUUGACACAGUCUGCAUGCCGCCGGGCGCCAUGCCUGCAGGUCGACUCUAGAAAACAUG | < -5.64 | -5.31 |  | -8.32 |  | 
GGCUAGAACUAGUGGAUCCCCCGGCGCCCGGCGGCUCGAGCCCGGGUAAGAGGUCGUCGUCUGCAUGCCGCCGGGCGCCAUGCCUGCAGGUCGACUCUAGAAAACAUG | < -5.71 | -5.08 |  | -7.79 |  | 
GGCUAGAACUAGUGGAUCCCCCGGCGCCCGGCGGCUCGAGCCCGGGUAAGUUCCCGUCGUCUGCAUGCCGCCGGGCGCCAUGCCUGCAGGUCGACUCUAGAAAACAUG | -5.18 | -5.35 |  |  | -2.14 | 
GGCUAGAACUAGUGGAUCCCCCGGCGCCCGGCGGCUCGAGCCCGGGUAAGCGGACAUCGUCUGCAUGCCGCCGGGCGCCAUGCCUGCAGGUCGACUCUAGAAAACAUG | -5.14 | -5.46 |  | -6.8 |  | 
GGCUAGAACUAGUGGAUCCCCCGGCGCCCGGCGGCUCGAGCCCGGGUAAGUGUCAAAUGUCUGCAUGCCGCCGGGCGCCAUGCCUGCAGGUCGACUCUAGAAAACAUG | -5.5 | -5.52 |  | -9.09 |  | 
GGCUAGAACUAGUGGAUCCCCCGGCGCCCGGCGGCUCGAGCCCGGGUAAGUUGAAGCCGUCUGCAUGCCGCCGGGCGCCAUGCCUGCAGGUCGACUCUAGAAAACAUG | -4.29 | < -6.61 | -1.99 | < -7.27 |  | 
GGCUAGAACUAGUGGAUCCCCCGGCGCCCGGCGGCUCGAGCCCGGGUAAGUGGUAUGCGUCUGCAUGCCGCCGGGCGCCAUGCCUGCAGGUCGACUCUAGAAAACAUG | -4.66 | -4.44 |  | < -7.34 |  | 
GGCUAGAACUAGUGGAUCCCCCGGCGCCCGGCGGCUCGAGCCCGGGUAAGUUUAAACAGUCUGCAUGCCGCCGGGCGCCAUGCCUGCAGGUCGACUCUAGAAAACAUG | -5.64 | -5.56 |  | -7.99 |  | 
GGCUAGAACUAGUGGAUCCCCCGGCGCCCGGCGGCUCGAGCCCGGGUAAGACGAAUAAGUCUGCAUGCCGCCGGGCGCCAUGCCUGCAGGUCGACUCUAGAAAACAUG | -4.05 | -4.22 | < -1.27 | -6.86 |  | -0.37
GGCUAGAACUAGUGGAUCCCCCGGCGCCCGGCGGCUCGAGCCCGGGUAAGGUUAAGUAGUCUGCAUGCCGCCGGGCGCCAUGCCUGCAGGUCGACUCUAGAAAACAUG | -6.27 | -2.17 |  | -7.71 |  | 
GGCUAGAACUAGUGGAUCCCCCGGCGCCCGGCGGCUCGAGCCCGGGUAAGUGUACGUAGUCUGCAUGCCGCCGGGCGCCAUGCCUGCAGGUCGACUCUAGAAAACAUG | -6.11 | -5.32 | -1.99 | -7.8 |  | -0.92
GGCUAGAACUAGUGGAUCCCCCGGCGCCCGGCGGCUCGAGCCCGGGUAAGUGUAACUGGUCUGCAUGCCGCCGGGCGCCAUGCCUGCAGGUCGACUCUAGAAAACAUG | -3.41 | -5.53 |  | -7.16 | -2.92 | 
GGCUAGAACUAGUGGAUCCCCCGGCGCCCGGCGGCUCGAGCCCGGGUAAGUUAAAAAAGUCUGCAUGCCGCCGGGCGCCAUGCCUGCAGGUCGACUCUAGAAAACAUG | -5.97 | -5.33 | -1.17 | < -9.37 |  | -1.9

A run of entries from the list above, as a working copy:
Sequence | binding signal (log2 enrichment (interaction score)) [1] | binding signal (log2 enrichment (interaction score)) [2] | binding signal (log2 enrichment (interaction score)) [3] | binding signal (log2 enrichment (interaction score)) [4] | binding signal (log2 enrichment (interaction score)) [5] | binding signal (log2 enrichment (interaction score)) [6]
GGCUAGAACUAGUGGAUCCCCCGGCGCCCGGCGGCUCGAGCCCGGGUAAGUUGCCAUAGUCUGCAUGCCGCCGGGCGCCAUGCCUGCAGGUCGACUCUAGAAAACAUG | < -6.96 | -6.31 |  | -8.77 | -2.11 | -1.79
GGCUAGAACUAGUGGAUCCCCCGGCGCCCGGCGGCUCGAGCCCGGGUAAGGUGUACAAGUCUGCAUGCCGCCGGGCGCCAUGCCUGCAGGUCGACUCUAGAAAACAUG | -6.13 | -5.46 |  |  | -2.88 | 
GGCUAGAACUAGUGGAUCCCCCGGCGCCCGGCGGCUCGAGCCCGGGUAAGUUGACACAGUCUGCAUGCCGCCGGGCGCCAUGCCUGCAGGUCGACUCUAGAAAACAUG | < -5.64 | -5.31 |  | -8.32 |  | 
GGCUAGAACUAGUGGAUCCCCCGGCGCCCGGCGGCUCGAGCCCGGGUAAGAGGUCGUCGUCUGCAUGCCGCCGGGCGCCAUGCCUGCAGGUCGACUCUAGAAAACAUG | < -5.71 | -5.08 |  | -7.79 |  | 
